Data: article PMC7850899, “Nutrient transceptors physically interact with the yeast S6/protein kinase B homolog, Sch9, a TOR kinase target” (Biochemical Journal, 2021)
Results are given in words; binding and its absence hold for the method and conditions named. In cells and extracts the contact can be indirect. Some binding calls cover weakened binding; strength is not graded here. Where a sequence is shown, tags or fusion partners need not be part of it.

T1: GST-tagged Sch9 (GST-Sch9) (S. cerevisiae) (UniProt P11792)
T1 sequence: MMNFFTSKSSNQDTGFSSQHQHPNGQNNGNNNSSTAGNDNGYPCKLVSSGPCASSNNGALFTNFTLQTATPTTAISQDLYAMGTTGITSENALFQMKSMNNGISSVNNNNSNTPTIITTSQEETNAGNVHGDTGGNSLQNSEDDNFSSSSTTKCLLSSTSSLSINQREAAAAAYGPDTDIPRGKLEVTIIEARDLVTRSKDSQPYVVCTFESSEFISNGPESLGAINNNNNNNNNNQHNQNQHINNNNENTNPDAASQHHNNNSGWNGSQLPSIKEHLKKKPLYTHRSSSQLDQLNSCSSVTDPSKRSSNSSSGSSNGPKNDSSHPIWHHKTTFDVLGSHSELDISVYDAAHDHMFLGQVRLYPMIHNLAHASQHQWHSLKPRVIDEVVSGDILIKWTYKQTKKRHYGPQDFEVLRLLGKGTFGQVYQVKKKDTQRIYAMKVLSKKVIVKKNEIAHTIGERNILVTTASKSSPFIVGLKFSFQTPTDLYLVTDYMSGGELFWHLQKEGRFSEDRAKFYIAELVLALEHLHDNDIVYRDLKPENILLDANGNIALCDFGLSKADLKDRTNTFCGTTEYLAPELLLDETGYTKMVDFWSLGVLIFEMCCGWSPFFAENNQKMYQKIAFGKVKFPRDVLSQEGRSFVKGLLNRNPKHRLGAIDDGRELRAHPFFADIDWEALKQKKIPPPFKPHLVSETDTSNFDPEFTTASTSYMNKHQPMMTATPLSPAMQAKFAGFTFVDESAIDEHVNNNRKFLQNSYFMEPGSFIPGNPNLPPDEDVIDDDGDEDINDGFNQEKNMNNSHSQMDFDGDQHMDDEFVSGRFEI


Biological target: T1, GST-tagged Sch9 (GST-Sch9) (S. cerevisiae)
Test: pull-down; GST-tagged protein from E. coli on glutathione sepharose beads, mixed with pre-cleared lysate of 24 h nitrogen-starved yeast with HA-Gap1, 2 h in the cold room, washed 3 times with PBS-T; Western blot with anti-HA-peroxidase; only the target purified

Row | Binder | binding
1 | HA-tagged Gap1^F233D (protein, UniProt P19145 1-602) MSNTSSYEKNNPDNLKHNGITIDSEFLTQEPITIPSNGSAVSIDETGSGSKWQDFKDSFKRVKPIEVDPNLSEAEKVAIITAQTPLKHHLKNRHLQMIAIGGAIGTGLLVGSGTALRTGGPASLLIGWGSTGTMIYAMVMALGELAVIFPISGGFTTYATRFIDESFGYANNFNYMLQWLVVLPLEIVSASITVNFWGTDPKYRDGFVALFWLAIVIINMFGVKGYGEAEFVDSFIKVITVVGFIILGIILNCGGGPTGGYIGGKYWHDPGAFAGDTPGAKFKGVCSVFVTAAFSFAGSELVGLAASESVEPRKSVPKAAKQVFWRITLFYILSLLMIGLLVPYNDKSLIGASSVDAAASPFVIAIKTHGIKGLPSVVNVVILIAVLSVGNSAIYACSRTMVALAEQRFLPEIFSYVDRKGRPLVGIAVTSAFGLIAFVAASKKEGEVFNWLLALSGLSSLFTWGGICICHIRFRKALAAQGRGLDELSFKSPTGVWGSYWGLFMVIIMFIAQFYVAVFPVGDSPSAEGFFEAYLSFPLVMVMYIGHKIYKRNWKLFIPAEKMDIDTGRREVDLDLLKQEIAEEKAIMATKPRWYRIWNFWC | binds
2 | HA-tagged wild type Gap1 (HA-Gap1) (protein, UniProt P19145 1-602) MSNTSSYEKNNPDNLKHNGITIDSEFLTQEPITIPSNGSAVSIDETGSGSKWQDFKDSFKRVKPIEVDPNLSEAEKVAIITAQTPLKHHLKNRHLQMIAIGGAIGTGLLVGSGTALRTGGPASLLIGWGSTGTMIYAMVMALGELAVIFPISGGFTTYATRFIDESFGYANNFNYMLQWLVVLPLEIVSASITVNFWGTDPKYRDGFVALFWLAIVIINMFGVKGYGEAEFVFSFIKVITVVGFIILGIILNCGGGPTGGYIGGKYWHDPGAFAGDTPGAKFKGVCSVFVTAAFSFAGSELVGLAASESVEPRKSVPKAAKQVFWRITLFYILSLLMIGLLVPYNDKSLIGASSVDAAASPFVIAIKTHGIKGLPSVVNVVILIAVLSVGNSAIYACSRTMVALAEQRFLPEIFSYVDRKGRPLVGIAVTSAFGLIAFVAASKKEGEVFNWLLALSGLSSLFTWGGICICHIRFRKALAAQGRGLDELSFKSPTGVWGSYWGLFMVIIMFIAQFYVAVFPVGDSPSAEGFFEAYLSFPLVMVMYIGHKIYKRNWKLFIPAEKMDIDTGRREVDLDLLKQEIAEEKAIMATKPRWYRIWNFWC | binds
3 | HA-tagged Gap1^V232K (protein, UniProt P19145 1-602) MSNTSSYEKNNPDNLKHNGITIDSEFLTQEPITIPSNGSAVSIDETGSGSKWQDFKDSFKRVKPIEVDPNLSEAEKVAIITAQTPLKHHLKNRHLQMIAIGGAIGTGLLVGSGTALRTGGPASLLIGWGSTGTMIYAMVMALGELAVIFPISGGFTTYATRFIDESFGYANNFNYMLQWLVVLPLEIVSASITVNFWGTDPKYRDGFVALFWLAIVIINMFGVKGYGEAEFKFSFIKVITVVGFIILGIILNCGGGPTGGYIGGKYWHDPGAFAGDTPGAKFKGVCSVFVTAAFSFAGSELVGLAASESVEPRKSVPKAAKQVFWRITLFYILSLLMIGLLVPYNDKSLIGASSVDAAASPFVIAIKTHGIKGLPSVVNVVILIAVLSVGNSAIYACSRTMVALAEQRFLPEIFSYVDRKGRPLVGIAVTSAFGLIAFVAASKKEGEVFNWLLALSGLSSLFTWGGICICHIRFRKALAAQGRGLDELSFKSPTGVWGSYWGLFMVIIMFIAQFYVAVFPVGDSPSAEGFFEAYLSFPLVMVMYIGHKIYKRNWKLFIPAEKMDIDTGRREVDLDLLKQEIAEEKAIMATKPRWYRIWNFWC | binds
4 | HA-tagged Gap1^S234E (protein, UniProt P19145 1-602) MSNTSSYEKNNPDNLKHNGITIDSEFLTQEPITIPSNGSAVSIDETGSGSKWQDFKDSFKRVKPIEVDPNLSEAEKVAIITAQTPLKHHLKNRHLQMIAIGGAIGTGLLVGSGTALRTGGPASLLIGWGSTGTMIYAMVMALGELAVIFPISGGFTTYATRFIDESFGYANNFNYMLQWLVVLPLEIVSASITVNFWGTDPKYRDGFVALFWLAIVIINMFGVKGYGEAEFVFEFIKVITVVGFIILGIILNCGGGPTGGYIGGKYWHDPGAFAGDTPGAKFKGVCSVFVTAAFSFAGSELVGLAASESVEPRKSVPKAAKQVFWRITLFYILSLLMIGLLVPYNDKSLIGASSVDAAASPFVIAIKTHGIKGLPSVVNVVILIAVLSVGNSAIYACSRTMVALAEQRFLPEIFSYVDRKGRPLVGIAVTSAFGLIAFVAASKKEGEVFNWLLALSGLSSLFTWGGICICHIRFRKALAAQGRGLDELSFKSPTGVWGSYWGLFMVIIMFIAQFYVAVFPVGDSPSAEGFFEAYLSFPLVMVMYIGHKIYKRNWKLFIPAEKMDIDTGRREVDLDLLKQEIAEEKAIMATKPRWYRIWNFWC | binds

Further lines, results first:

Row | binding | Binder
5 | binds | HA-tagged Gap1^F231D (protein, UniProt P19145 1-602) MSNTSSYEKNNPDNLKHNGITIDSEFLTQEPITIPSNGSAVSIDETGSGSKWQDFKDSFKRVKPIEVDPNLSEAEKVAIITAQTPLKHHLKNRHLQMIAIGGAIGTGLLVGSGTALRTGGPASLLIGWGSTGTMIYAMVMALGELAVIFPISGGFTTYATRFIDESFGYANNFNYMLQWLVVLPLEIVSASITVNFWGTDPKYRDGFVALFWLAIVIINMFGVKGYGEAEDVFSFIKVITVVGFIILGIILNCGGGPTGGYIGGKYWHDPGAFAGDTPGAKFKGVCSVFVTAAFSFAGSELVGLAASESVEPRKSVPKAAKQVFWRITLFYILSLLMIGLLVPYNDKSLIGASSVDAAASPFVIAIKTHGIKGLPSVVNVVILIAVLSVGNSAIYACSRTMVALAEQRFLPEIFSYVDRKGRPLVGIAVTSAFGLIAFVAASKKEGEVFNWLLALSGLSSLFTWGGICICHIRFRKALAAQGRGLDELSFKSPTGVWGSYWGLFMVIIMFIAQFYVAVFPVGDSPSAEGFFEAYLSFPLVMVMYIGHKIYKRNWKLFIPAEKMDIDTGRREVDLDLLKQEIAEEKAIMATKPRWYRIWNFWC
6 | binds | HA-tagged Gap1^FVF-DKD (protein, UniProt P19145 1-602) MSNTSSYEKNNPDNLKHNGITIDSEFLTQEPITIPSNGSAVSIDETGSGSKWQDFKDSFKRVKPIEVDPNLSEAEKVAIITAQTPLKHHLKNRHLQMIAIGGAIGTGLLVGSGTALRTGGPASLLIGWGSTGTMIYAMVMALGELAVIFPISGGFTTYATRFIDESFGYANNFNYMLQWLVVLPLEIVSASITVNFWGTDPKYRDGFVALFWLAIVIINMFGVKGYGEAEDKDSFIKVITVVGFIILGIILNCGGGPTGGYIGGKYWHDPGAFAGDTPGAKFKGVCSVFVTAAFSFAGSELVGLAASESVEPRKSVPKAAKQVFWRITLFYILSLLMIGLLVPYNDKSLIGASSVDAAASPFVIAIKTHGIKGLPSVVNVVILIAVLSVGNSAIYACSRTMVALAEQRFLPEIFSYVDRKGRPLVGIAVTSAFGLIAFVAASKKEGEVFNWLLALSGLSSLFTWGGICICHIRFRKALAAQGRGLDELSFKSPTGVWGSYWGLFMVIIMFIAQFYVAVFPVGDSPSAEGFFEAYLSFPLVMVMYIGHKIYKRNWKLFIPAEKMDIDTGRREVDLDLLKQEIAEEKAIMATKPRWYRIWNFWC
